Experiment [1] addresses T1, Eukaryotic translation initiation factor 2A (UniProt Q8BJW6).
T1 sequence: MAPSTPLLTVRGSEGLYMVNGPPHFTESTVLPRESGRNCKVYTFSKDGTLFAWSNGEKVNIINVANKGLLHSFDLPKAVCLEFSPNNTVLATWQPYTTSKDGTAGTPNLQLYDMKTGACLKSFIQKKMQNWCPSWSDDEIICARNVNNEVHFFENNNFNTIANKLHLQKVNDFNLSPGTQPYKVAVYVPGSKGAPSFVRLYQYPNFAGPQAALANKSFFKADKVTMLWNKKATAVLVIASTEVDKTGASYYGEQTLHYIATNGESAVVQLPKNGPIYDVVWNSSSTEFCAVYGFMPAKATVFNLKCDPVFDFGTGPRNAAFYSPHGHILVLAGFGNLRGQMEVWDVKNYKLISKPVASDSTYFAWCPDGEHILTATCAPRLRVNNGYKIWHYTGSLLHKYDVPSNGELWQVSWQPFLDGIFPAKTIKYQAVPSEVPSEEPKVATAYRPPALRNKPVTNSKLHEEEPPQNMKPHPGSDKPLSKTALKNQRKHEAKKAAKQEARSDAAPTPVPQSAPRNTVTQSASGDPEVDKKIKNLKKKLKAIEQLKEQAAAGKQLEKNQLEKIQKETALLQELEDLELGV
Put plainly: co-IP.

Protein sequences, listed by entry. Tags and fused reporters are not part of them.
UniProt Q6ZWX6: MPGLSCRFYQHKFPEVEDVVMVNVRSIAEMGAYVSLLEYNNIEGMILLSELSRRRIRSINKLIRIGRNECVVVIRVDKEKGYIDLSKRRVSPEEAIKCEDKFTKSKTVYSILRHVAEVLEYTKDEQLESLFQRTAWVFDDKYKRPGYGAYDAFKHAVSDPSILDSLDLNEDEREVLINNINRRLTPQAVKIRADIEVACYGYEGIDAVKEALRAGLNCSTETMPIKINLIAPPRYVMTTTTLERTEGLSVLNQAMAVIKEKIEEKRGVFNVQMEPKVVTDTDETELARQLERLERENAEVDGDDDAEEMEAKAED

Experiment [2] addresses EIF2S1 (α subunit of the eukaryotic initiation factor 2) (UniProt Q6ZWX6). The experiment is described as follows: co-IP.

No constants are given. Whether binding was seen depends on the method and setting. In cells and extracts the contact can be indirect. Some entries that bind do so weakly or less than the wild type.

As for “EIF2S1 (α subunit of the eukaryotic initiation factor 2) (from UniProt Q6ZWX6 1-315)”, the binding result in experiment [1] is “binds”.

B1: Eukaryotic translation initiation factor 2A (protein, UniProt Q8BJW6 1-581)
chain: MAPSTPLLTVRGSEGLYMVNGPPHFTESTVLPRESGRNCKVYTFSKDGTLFAWSNGEKVNIINVANKGLLHSFDLPKAVCLEFSPNNTVLATWQPYTTSKDGTAGTPNLQLYDMKTGACLKSFIQKKMQNWCPSWSDDEIICARNVNNEVHFFENNNFNTIANKLHLQKVNDFNLSPGTQPYKVAVYVPGSKGAPSFVRLYQYPNFAGPQAALANKSFFKADKVTMLWNKKATAVLVIASTEVDKTGASYYGEQTLHYIATNGESAVVQLPKNGPIYDVVWNSSSTEFCAVYGFMPAKATVFNLKCDPVFDFGTGPRNAAFYSPHGHILVLAGFGNLRGQMEVWDVKNYKLISKPVASDSTYFAWCPDGEHILTATCAPRLRVNNGYKIWHYTGSLLHKYDVPSNGELWQVSWQPFLDGIFPAKTIKYQAVPSEVPSEEPKVATAYRPPALRNKPVTNSKLHEEEPPQNMKPHPGSDKPLSKTALKNQRKHEAKKAAKQEARSDAAPTPVPQSAPRNTVTQSASGDPEVDKKIKNLKKKLKAIEQLKEQAAAGKQLEKNQLEKIQKETALLQELEDLELGV
For the molecule B1, the binding entry in experiment [2] is “binds”.

Source of the values: publication doi:10.1101/2021.02.17.431676.
